These are yes or no findings as the source states them, for the method shown. Binding seen in cells or lysates may run through a third protein. Some entries that bind do so weakly or less than the wild type. For part of these data: Where a sequence is shown, tags or fusion partners need not be part of it.
Assays:
[1] = target: T1, SFB-tagged FHL2 (human) (UniProt Q14192); test: co-IP; exogenous IP: HEK293T co-transfected, NETN lysate, SFB-tagged protein captured on high-capacity streptavidin beads 3 h at 4 °C, five washes, Western blot
T1 sequence: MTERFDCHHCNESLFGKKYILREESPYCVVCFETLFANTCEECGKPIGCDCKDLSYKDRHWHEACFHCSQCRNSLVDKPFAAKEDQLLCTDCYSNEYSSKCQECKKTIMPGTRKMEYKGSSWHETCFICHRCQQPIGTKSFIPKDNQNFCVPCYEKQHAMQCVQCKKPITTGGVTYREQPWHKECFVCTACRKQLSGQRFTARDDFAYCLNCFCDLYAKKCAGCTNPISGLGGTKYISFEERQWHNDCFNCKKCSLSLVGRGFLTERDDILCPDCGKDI

Chains of the proteins cited; added tags and fusions are not shown.
UniProt Q9H0J9: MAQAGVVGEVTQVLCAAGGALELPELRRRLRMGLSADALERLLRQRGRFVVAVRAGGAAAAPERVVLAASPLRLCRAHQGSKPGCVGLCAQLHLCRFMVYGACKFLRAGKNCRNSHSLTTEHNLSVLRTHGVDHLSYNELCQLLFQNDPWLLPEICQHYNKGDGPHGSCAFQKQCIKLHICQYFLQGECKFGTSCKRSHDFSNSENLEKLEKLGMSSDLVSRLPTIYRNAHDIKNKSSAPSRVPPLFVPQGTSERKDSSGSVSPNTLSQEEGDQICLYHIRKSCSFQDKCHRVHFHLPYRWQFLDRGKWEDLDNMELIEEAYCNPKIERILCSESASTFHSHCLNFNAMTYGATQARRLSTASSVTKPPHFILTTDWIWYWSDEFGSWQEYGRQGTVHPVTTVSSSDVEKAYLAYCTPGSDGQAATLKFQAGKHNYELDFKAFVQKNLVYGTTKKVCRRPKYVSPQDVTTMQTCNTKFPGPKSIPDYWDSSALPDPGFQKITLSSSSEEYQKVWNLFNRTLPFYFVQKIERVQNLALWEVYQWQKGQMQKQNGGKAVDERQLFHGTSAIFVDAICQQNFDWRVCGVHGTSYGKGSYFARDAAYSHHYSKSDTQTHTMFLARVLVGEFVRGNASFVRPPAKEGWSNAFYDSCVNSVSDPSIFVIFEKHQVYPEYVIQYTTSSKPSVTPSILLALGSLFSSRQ

[2] = target: streptavidin-Flag-S protein (SFB)-tagged PARP12 (human) (UniProt Q9H0J9); test: as above
[3] = target: PARP12, endogenous (human (endogenous in HEK293T, QGY-7703, Huh7)) (UniProt Q9H0J9); test: co-IP; endogenous reciprocal IP with anti-PARP12 and anti-FHL2 antibodies on protein-A/G beads, 3 h at 4 °C, NETN lysates of HEK293T, QGY-7703 and Huh7 cells; irrelevant IgG as negative control

“GFP-tagged PARP12, wild type (from UniProt Q9H0J9 1-701) (enzyme)” was tested, and the binding [1] was “binds”.

B1: HA-tagged FHL2 (HEK293T) (protein, UniProt Q14192-1 1-279)
chain: MTERFDCHHCNESLFGKKYILREESPYCVVCFETLFANTCEECGKPIGCDCKDLSYKDRHWHEACFHCSQCRNSLVDKPFAAKEDQLLCTDCYSNEYSSKCQECKKTIMPGTRKMEYKGSSWHETCFICHRCQQPIGTKSFIPKDNQNFCVPCYEKQHAMQCVQCKKPITTGGVTYREQPWHKECFVCTACRKQLSGQRFTARDDFAYCLNCFCDLYAKKCAGCTNPISGLGGTKYISFEERQWHNDCFNCKKCSLSLVGRGFLTERDDILCPDCGKDI
B1 was tested, and the binding [2] was “binds”.

B2: four-and-a-half LIM-only protein 2 (FHL2), endogenous (protein, UniProt Q14192 1-279)
chain: MTERFDCHHCNESLFGKKYILREESPYCVVCFETLFANTCEECGKPIGCDCKDLSYKDRHWHEACFHCSQCRNSLVDKPFAAKEDQLLCTDCYSNEYSSKCQECKKTIMPGTRKMEYKGSSWHETCFICHRCQQPIGTKSFIPKDNQNFCVPCYEKQHAMQCVQCKKPITTGGVTYREQPWHKECFVCTACRKQLSGQRFTARDDFAYCLNCFCDLYAKKCAGCTNPISGLGGTKYISFEERQWHNDCFNCKKCSLSLVGRGFLTERDDILCPDCGKDI
B2 was tested, and the binding [3] was “binds”.
